What follows are compounds tested on LRRK2 (assay: NanoBRET-based ternary binding and cooperativity assay). Details: IC50 without VCB / IC50 with VCB.
Protocol: The HEK293 cells were transfected with LRRK2-NanoLuc fusion vector (Promega, NV3401) following Promega's protocol and seeded into white 384-well plate (Corning3570) at a density of 6000 cells/well. The cells were then treated with 50 μg/mL of digitonin, 125 nM of LRRK2 tracer, testing compounds at decreasing concentrations (11 concentrations with 2-fold serial dilution starting from 10 μM) or testing compounds and VCB mix (11 concentrations with 2-fold serial dilution starting from 10 μM compound for the compound. The first 6 concentrations of VCB start from 32 μM with 2-fold dilution, the last 5 concentrations of VCB keep at 1 μM), and NanoBRET NanoGlo Substrate (Promega) at concentration recommended by the manufacturer's protocol. In the maximum signal control samples (DMSO control), DMSO was added instead of testing compounds. In the minimum signal control samples (no tracer control), DMSO and LRRK2 tracer dilution buffer were used to replace testing compounds and LRRK2 tracer separately. The filtered luminescence was measured within 10 min following addition of the substrate on a PHERAstar (BMG LABTECH) plate reader equipped with a 450-nm bandpass filter (donor) and a 600-nm long pass filter (acceptor). The fractional occupancy was calculated according to the equation: fractional occupancy=(mBRETtesting compound−mBRETno tracer control)/(mBRETDMSO control−mBRETno tracer control).

Question: CNc1nc(Nc2ccc(C(=O)N3CCN(CCOCCOCCSC(C)(C)[C@H](NC(=O)C4(F)CC4)C(=O)N4C[C@H](O)C[C@H]4C(=O)NCc4ccc(-c5scnc5C)cc4)CC3)cc2OC)ncc1Cl [SD75, (2S,4R)-1-((R)-3-((2-(2-(2-(4-(4-((5-chloro-4-(methylamino)pyrimidin-2-yl)amino)-3-methoxybenzoyl)piperazin-1-yl)ethoxy)ethoxy)ethyl)thio)-2-(1-fluorocyclopropane-1-carboxamido)-3-methylbutanoyl)-4-hydroxy-N-(4-(4-methylthiazol-5-yl)benzyl)pyrrolidine-2-carboxamide] was tested. Which “cooperativity (a)” value did it give?
Answer: Its value is 0.79.

Question: For CNc1nc(Nc2ccc(C(=O)N3CCN(C[C@H]4CC[C@H](CSC(C)(C)[C@H](NC(=O)C5(F)CC5)C(=O)N5C[C@H](O)CC5C(=O)NCc5ccc(-c6scnc6C)cc5)CC4)CC3)cc2OC)ncc1Cl (stereo partly drawn) [XL01126, (2S,4R)-1-((R)-3-((((1R,4R)-4-((4-(4-((5-chloro-4-(methylamino)pyrimidin-2-yl)amino)-3-methoxybenzoyl)piperazin-1-yl)methyl)cyclohexyl)methyl)thio)-2-(1-fluorocyclopropane-1-carboxamido)-3-methylbutanoyl)-4-hydroxy-N-(4-(4-methylthiazol-5-yl)benzyl)pyrrolidine-2-carboxamide], which “cooperativity (a)” value is on record?
Answer: Its value is 5.7.

Question: How did the “cooperativity (a)” value turn out when CNc1nc(Nc2ccc(C(=O)N3CCN(C[C@H]4CC[C@@H](CSC(C)(C)[C@H](NC(=O)C5(F)CC5)C(=O)N5C[C@H](O)CC5C(=O)NCc5ccc(-c6scnc6C)cc5)CC4)CC3)cc2OC)ncc1Cl (stereo partly drawn) [XL01134] was run?
Answer: Its value is 1.4.

From US20260001875A1, “AMINOPYRIMIDINYL DERIVATIVES FOR THE TREATMENT OF PARKINSON'S DISEASE” (UNIVERSITY OF DUNDEE, priority 2022, published 2026)
